Like-named read-outs stand apart in the source and are kept apart here. Results are given in words; binding and its absence hold for the method and conditions named. In cells and extracts the contact can be indirect. Some entries that bind do so weakly or less than the wild type. Blank lines part the entries; values can stand above or below the molecule they belong to.
Key:
[1] = target: p18 (mouse (endogenous in hippocampal neurons and hippocampus)) (UniProt Q9CQ22); assay: co-IP; lysates of cultured mouse hippocampal neurons; anti-p18 antibody overnight or control IgG, protein A/G agarose; 4°C; lysis buffer 25 mM Tris-HCl pH 7.4, 150 mM NaCl, 1 mM EDTA, 1% NP-40, 5% glycerol; Western blot
[2] = target: RagA (mouse (endogenous in hippocampus)) (UniProt Q80X95); assay: co-IP; mouse hippocampal lysates (WT mice; also AS mice, in which less p18 came down with RagA); rabbit anti-RagA antibody or control IgG, Protein A/G-conjugated beads; 4°C; Western blot
[3] = target: p18 (mouse (endogenous in hippocampal neurons and hippocampus)) (UniProt Q9CQ22); assay: co-IP; lysates of cultured mouse hippocampal neurons; anti-p18 antibody overnight or control IgG, protein A/G agarose; 4°C; lysis buffer 25 mM Tris-HCl pH 7.4, 150 mM NaCl, 1 mM EDTA, 1% NP-40, 5% glycerol; Western blot; remark: listed apart in the source

By UniProt entry, the sequences of proteins in these tests, tags left out.
UniProt Q9CQ22: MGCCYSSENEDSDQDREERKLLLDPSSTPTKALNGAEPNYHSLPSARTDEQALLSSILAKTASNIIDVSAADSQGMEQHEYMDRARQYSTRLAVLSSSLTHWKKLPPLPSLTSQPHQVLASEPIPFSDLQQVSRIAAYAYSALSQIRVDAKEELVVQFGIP
UniProt Q80X95: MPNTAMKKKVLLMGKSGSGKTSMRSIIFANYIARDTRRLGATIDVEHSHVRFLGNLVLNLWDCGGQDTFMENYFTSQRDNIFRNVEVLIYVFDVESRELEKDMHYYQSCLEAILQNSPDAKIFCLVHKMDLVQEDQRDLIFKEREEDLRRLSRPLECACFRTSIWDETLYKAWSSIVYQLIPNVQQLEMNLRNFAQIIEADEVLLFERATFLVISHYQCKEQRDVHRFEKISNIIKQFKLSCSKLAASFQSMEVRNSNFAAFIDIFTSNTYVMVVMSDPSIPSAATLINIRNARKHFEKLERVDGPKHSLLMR
UniProt O88653: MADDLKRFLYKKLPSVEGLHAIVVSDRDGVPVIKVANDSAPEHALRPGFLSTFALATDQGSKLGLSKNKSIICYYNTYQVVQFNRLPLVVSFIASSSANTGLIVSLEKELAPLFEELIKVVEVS
UniProt Q9JHS3: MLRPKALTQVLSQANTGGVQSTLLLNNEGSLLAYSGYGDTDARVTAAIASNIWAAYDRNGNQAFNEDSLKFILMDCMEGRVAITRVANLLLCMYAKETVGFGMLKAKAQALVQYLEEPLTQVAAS
UniProt Q6NTA4: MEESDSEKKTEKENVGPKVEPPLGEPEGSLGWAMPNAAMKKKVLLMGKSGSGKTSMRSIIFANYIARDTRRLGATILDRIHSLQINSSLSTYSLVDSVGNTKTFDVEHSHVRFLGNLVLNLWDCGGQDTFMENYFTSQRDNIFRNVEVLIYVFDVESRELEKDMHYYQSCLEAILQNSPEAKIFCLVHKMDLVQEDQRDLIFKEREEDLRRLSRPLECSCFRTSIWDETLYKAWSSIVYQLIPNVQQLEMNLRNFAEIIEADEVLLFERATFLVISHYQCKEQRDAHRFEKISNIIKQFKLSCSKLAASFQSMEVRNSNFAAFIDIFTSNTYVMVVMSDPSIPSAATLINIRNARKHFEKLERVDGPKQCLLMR
UniProt Q99K70: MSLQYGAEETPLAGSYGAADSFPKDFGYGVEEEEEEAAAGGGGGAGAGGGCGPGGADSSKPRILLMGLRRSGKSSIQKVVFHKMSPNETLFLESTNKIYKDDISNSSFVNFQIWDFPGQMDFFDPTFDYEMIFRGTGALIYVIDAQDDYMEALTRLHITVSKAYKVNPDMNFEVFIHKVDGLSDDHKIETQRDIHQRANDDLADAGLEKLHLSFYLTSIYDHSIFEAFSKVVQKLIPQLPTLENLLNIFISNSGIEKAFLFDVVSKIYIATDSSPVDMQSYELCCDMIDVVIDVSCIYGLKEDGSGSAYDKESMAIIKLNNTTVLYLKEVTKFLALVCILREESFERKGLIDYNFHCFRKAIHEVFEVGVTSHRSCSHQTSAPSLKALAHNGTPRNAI

Molecule: MP1 (from UniProt O88653 1-124)
binding [1]: binds

Molecule: p14 (from UniProt Q9JHS3 1-125)
binding [2]: binds
binding [1]: binds

Molecule: p18 (from UniProt Q9CQ22 1-161)
binding [2]: binds

B1: Ube3a (enzyme, UniProt O08759 1-870)
chain: MATACKRSPGESQSEDIEASRMKRAAAKHLIERYYHQLTEGCGNEACTNEFCASCPTFLRMDNNAAAIKALELYKINAKLCDPHPSKKGASSAYLENSKGASNNSEIKMNKKEGKDFKDVIYLTEEKVYEIYEFCRESEDYSPLIRVIGRIFSSAEALVLSFRKVKQHTKEELKSLQEKDEDKDEDEKEKAACSAAAMEEDSEASSSRMGDSSQGDNNVQKLGPDDVTVDIDAIRRVYSSLLANEKLETAFLNALVYLSPNVECDLTYHNVYTRDPNYLNLFIIVMENSNLHSPEYLEMALPLFCKAMCKLPLEAQGKLIRLWSKYSADQIRRMMETFQQLITYKVISNEFNSRNLVNDDDAIVAASKCLKMVYYANVVGGDVDTNHNEEDDEEPIPESSELTLQELLGDERRNKKGPRVDPLETELGVKTLDCRKPLISFEEFINEPLNDVLEMDKDYTFFKVETENKFSFMTCPFILNAVTKNLGLYYDNRIRMYSERRITVLYSLVQGQQLNPYLRLKVRRDHIIDDALVRLEMIAMENPADLKKQLYVEFEGEQGVDEGGVSKEFFQLVVEEIFNPDIGMFTYDEATKLFWFNPSSFETEGQFTLIGIVLGLAIYNNCILDVHFPMVVYRKLMGKKGTFRDLGDSHPVLYQSLKDLLEYEGSVEDDMMITFQISQTDLFGNPMMYDLKENGDKIPITNENRKEFVNLYSDYILNKSVEKQFKAFRRGFHMVTNESPLKYLFRPEEIELLICGSRNLDFQALEETTEYDGGYTRESVVIREFWEIVHSFTDEQKRLFLQFTTGTDRAPVGGLGKLKMIIAKNGPDTERLPTSHTCFNVLLLPEYSSKEKLKERLLKAITYAKGFGML
binding [3]: binds

Second part, the molecule after the results:

binding [2]: binds
Molecule: RagB (from UniProt Q6NTA4 1-374)

binding [2]: binds
Molecule: RagC (from UniProt Q99K70 1-398)

— PMC6063731
